Measurements taken from publication PMC8975949.
No constants are given. Whether binding was seen depends on the method and setting. For some assays here: In cells and extracts the contact can be indirect. Some results given as binding are weak or reduced against the parent protein; the word gives no strength. For some assays here: Tags and fused reporters may be left off the sequences shown.

Sequences of proteins named here, by UniProt entry; tags and fusion partners are left off. A change or cut given only in a name is not applied to a line headed by its entry.
UniProt Q00651: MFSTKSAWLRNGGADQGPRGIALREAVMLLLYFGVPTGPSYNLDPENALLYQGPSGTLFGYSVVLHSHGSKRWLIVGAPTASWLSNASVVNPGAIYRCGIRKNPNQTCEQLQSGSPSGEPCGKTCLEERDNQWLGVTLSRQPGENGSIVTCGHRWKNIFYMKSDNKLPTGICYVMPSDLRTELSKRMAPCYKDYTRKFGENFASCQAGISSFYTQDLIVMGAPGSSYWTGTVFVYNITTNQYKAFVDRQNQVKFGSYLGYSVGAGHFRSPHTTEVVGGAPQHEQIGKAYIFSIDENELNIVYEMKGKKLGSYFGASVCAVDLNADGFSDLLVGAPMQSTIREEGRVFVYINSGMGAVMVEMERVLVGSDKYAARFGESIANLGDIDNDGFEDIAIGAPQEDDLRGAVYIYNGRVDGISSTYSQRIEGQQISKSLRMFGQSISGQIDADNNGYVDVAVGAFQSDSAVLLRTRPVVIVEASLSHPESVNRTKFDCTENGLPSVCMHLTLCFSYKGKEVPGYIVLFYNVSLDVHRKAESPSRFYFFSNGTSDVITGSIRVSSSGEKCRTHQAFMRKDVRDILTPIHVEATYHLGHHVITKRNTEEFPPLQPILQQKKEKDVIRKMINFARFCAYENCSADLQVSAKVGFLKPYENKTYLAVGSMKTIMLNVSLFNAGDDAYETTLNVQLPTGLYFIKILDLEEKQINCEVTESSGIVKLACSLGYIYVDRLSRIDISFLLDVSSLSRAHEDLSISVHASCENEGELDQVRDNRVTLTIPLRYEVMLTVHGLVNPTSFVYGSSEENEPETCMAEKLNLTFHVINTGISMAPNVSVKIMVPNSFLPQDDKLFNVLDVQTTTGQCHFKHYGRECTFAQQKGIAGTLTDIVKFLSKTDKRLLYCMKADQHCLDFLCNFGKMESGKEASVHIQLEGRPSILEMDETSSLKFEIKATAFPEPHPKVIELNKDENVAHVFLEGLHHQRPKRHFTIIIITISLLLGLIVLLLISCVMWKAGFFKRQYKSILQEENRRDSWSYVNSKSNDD
UniProt P09055: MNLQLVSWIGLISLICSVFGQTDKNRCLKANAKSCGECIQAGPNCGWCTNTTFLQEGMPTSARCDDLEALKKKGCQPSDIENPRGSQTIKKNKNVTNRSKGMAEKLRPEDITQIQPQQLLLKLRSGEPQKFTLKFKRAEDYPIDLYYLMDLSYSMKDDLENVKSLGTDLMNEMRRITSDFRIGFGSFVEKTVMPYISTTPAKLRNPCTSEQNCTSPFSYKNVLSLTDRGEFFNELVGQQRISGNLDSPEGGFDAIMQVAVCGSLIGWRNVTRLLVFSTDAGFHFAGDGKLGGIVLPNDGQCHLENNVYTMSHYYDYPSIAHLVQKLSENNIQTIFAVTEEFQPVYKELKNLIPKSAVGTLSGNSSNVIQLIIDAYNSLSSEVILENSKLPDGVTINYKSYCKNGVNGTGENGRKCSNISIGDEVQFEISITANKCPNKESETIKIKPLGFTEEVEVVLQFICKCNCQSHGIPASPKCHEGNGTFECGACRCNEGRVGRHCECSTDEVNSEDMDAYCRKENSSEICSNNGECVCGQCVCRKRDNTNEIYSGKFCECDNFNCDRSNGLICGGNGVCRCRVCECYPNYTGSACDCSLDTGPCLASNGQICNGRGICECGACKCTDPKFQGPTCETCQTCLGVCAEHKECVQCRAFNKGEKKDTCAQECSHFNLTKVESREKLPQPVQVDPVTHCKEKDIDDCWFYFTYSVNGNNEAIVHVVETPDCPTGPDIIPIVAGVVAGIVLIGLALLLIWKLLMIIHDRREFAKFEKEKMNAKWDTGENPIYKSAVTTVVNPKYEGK
UniProt P13612: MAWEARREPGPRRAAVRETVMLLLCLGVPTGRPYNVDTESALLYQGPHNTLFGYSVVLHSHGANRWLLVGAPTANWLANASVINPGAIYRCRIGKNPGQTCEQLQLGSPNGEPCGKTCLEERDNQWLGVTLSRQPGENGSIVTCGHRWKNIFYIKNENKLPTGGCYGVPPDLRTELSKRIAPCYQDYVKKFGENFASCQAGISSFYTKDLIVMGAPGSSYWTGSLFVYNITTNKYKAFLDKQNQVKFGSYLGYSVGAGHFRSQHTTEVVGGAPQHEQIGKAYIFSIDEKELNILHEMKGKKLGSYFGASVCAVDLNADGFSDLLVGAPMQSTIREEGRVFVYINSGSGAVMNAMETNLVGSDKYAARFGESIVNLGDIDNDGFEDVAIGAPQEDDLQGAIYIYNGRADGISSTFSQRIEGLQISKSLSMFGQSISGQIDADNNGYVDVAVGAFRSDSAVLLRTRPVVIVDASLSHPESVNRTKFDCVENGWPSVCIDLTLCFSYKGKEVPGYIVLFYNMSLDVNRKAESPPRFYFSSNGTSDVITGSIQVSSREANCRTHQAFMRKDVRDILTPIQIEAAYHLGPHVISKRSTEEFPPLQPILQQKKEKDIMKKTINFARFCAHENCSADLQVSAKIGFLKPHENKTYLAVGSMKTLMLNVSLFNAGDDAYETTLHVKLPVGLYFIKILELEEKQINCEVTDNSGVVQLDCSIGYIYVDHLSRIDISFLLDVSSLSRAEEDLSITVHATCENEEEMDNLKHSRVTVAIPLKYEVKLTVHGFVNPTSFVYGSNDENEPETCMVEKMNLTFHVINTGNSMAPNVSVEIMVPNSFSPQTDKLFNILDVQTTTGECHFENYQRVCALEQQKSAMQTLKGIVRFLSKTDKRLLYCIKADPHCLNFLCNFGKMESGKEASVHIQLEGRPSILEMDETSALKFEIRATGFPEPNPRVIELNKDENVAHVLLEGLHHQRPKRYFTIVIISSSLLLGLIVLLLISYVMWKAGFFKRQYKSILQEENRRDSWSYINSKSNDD
UniProt P05556: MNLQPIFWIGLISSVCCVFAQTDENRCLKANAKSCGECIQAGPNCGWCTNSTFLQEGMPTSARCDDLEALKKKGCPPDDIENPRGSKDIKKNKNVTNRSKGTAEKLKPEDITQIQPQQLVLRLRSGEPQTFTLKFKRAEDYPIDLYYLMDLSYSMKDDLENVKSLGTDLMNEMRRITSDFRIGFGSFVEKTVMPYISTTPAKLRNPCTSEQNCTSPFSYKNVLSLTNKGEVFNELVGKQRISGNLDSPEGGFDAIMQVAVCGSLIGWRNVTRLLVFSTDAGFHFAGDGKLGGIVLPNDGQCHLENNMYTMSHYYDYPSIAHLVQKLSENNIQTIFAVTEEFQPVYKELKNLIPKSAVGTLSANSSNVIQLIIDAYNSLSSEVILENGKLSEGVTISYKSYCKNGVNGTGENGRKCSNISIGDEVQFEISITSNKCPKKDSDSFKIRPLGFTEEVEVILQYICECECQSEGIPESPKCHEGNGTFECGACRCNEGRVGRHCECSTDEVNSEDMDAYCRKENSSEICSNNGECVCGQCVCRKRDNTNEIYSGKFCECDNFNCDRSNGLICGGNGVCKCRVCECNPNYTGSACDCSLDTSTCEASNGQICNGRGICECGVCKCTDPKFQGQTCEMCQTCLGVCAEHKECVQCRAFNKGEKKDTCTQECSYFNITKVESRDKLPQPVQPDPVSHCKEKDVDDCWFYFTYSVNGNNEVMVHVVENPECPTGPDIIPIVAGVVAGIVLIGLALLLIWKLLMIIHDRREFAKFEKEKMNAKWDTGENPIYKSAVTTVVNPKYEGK
UniProt Q8VI36: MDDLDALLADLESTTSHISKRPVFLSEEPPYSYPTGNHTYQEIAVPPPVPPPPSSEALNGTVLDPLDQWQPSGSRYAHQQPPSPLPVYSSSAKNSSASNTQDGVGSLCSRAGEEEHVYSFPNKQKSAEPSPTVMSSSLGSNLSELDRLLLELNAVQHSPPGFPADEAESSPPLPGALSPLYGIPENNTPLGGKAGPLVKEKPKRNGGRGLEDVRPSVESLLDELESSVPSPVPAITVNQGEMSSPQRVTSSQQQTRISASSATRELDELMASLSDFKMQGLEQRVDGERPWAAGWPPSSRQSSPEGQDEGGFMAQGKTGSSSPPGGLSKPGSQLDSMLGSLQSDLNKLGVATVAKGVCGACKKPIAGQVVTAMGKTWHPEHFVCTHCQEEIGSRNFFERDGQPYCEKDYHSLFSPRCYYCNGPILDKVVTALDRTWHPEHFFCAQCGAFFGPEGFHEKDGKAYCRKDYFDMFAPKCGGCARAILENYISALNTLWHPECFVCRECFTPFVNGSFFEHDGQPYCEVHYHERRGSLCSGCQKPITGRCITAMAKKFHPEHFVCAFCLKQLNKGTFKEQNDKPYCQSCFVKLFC

Columns and labels:
[1] = target: T1, integrin α4β1 (mouse) (mouse (endogenous in murine CD11b+ myeloid cells)) (UniProt Q00651+P09055); test: co-IP; integrin α4β1 precipitated with rat anti-mouse integrin α4 (PS2) and protein G Dynabeads from 1% CHAPS lysates (1 mg protein) of murine CD11b+ myeloid cells treated with Lewis lung carcinoma conditioned medium (TCM) or basal medium for 20 min at 37 °C; immunoblot for integrin α4, paxillin, talin
[2] = target: T1, integrin α4β1 (mouse) (mouse (endogenous in murine CD11b+ myeloid cells)); test: flow cytometry on cells; murine CD11b+ myeloid cells (WT, vehicle or control siRNA) incubated with 200 ng/ml IL-1β, SDF-1α, IL-6, TNFα, VEGF-A or with Mn2+ together with 1 mg/ml mouse VCAM-1/human-Fc; detected with donkey anti-human-Fc antibody; mean fluorescence intensity; only the binder purified
[3] = target: integrin α4β1 (human) (human (endogenous in peripheral blood CD11b+ myeloid cells)) (UniProt P13612+P05556); test: flow cytometry on cells; human peripheral blood CD11b+ myeloid cells, vehicle or MLCK inhibitor (MW01-022AZ, ML-7), stimulated with IL-1β, SDF-1α, VEGF-A or Mn2+, incubated with recombinant VCAM-1-Fc and anti-Fc fluorochrome-conjugated antibody; mean fluorescence intensity; only the binder purified
[4] = target: T1, integrin α4β1 (mouse) (mouse (endogenous in murine CD11b+ myeloid cells)); test: condition: only Myh9 siRNA-transfected cells stimulated with SDF-1α; 1 mg/ml VCAM-1/Fc; flow cytometry on cells; as a4, but Myh9 siRNA-transfected murine myeloid cells, stimulated with SDF-1α; only the binder purified
[5] = target: T1, integrin α4β1 (mouse) (mouse (endogenous in murine CD11b+ myeloid cells)); test: condition: only Mlck210−/−, Mylk siRNA-transfected or MW01-022AZ-treated cells, cytokine/chemokine-stimulated; 1 mg/ml VCAM-1/Fc; flow cytometry on cells; as a4, but Mlck210−/−, Mylk siRNA-transfected or MW01-022AZ-treated murine myeloid cells, stimulated with cytokine/chemokine; only the binder purified

With paxillin (from UniProt Q8VI36 1-591) the binding [1] was “binds”.

B1: mouse VCAM-1/human-Fc fusion protein (Fc fusion, UniProt P29533 25-698)
chain: FKIEISPEYKTIAQIGDSMALTCSTTGCESPLFSWRTQIDSPLNAKVRTEGSKSVLTMEPVSFENEHSYLCTATCGSGKLERSIHVDIYSFPKDPEIQFSGPLEVGKPVTVKCLAPDIYPVYRLEIDLFKGDQLMNRQEFSSEEMTKSLETKSLEVTFTPVIEDIGKALVCRAKLHIDQIDSTLKERETVKELQVYISPRNTTISVHPSTRLQEGGAVTMTCSSEGLPAPEIFWGRKLDNEVLQLLSGNATLTLIAMRMEDSGVYVCEGVNLIGRDKAEVELVVQEKPFIVDISPGSQVAAQVGDSVVLTCAAIGCDSPSFSWRTQTDSPLNGVVRNEGAKSTLVLSSVGFEDEHSYLCAVTCLQRTLEKRTQVEVYSFPEDPVIKMSGPLVHGRPVTVNCTVPNVYPFDHLEIELLKGETTLMKKYFLEEMGIKSLETKILETTFIPTIEDTGKSLVCLARLHSGEMESEPKQRQSVQPLYVNVAPKETTIWVSPSPILEEGSPVNLTCSSDGIPAPKILWSRQLNNGELQPLSENTTLTFMSTKRDDSGIYVCEGINEAGISRKSVELIIQVSPKDIQLTVFPSKSVKEGDTVIISCTCGNVPETWIILKKKAKTGDMVLKSVDGSYTIRQAQLQDAGIYECESKTEVGSQLRSLTLDVKGKEHNKDYFSPE
B1 was tested, and the binding [2] was “binds”, the binding [3] was “binds” and the binding [4] was “no binding”. For the same molecule, the binding [5] was “no binding”.
